Results published in the supplement of paper PMC8728848.
This is one part of the list.

What was measured:
Assay in all cases: glycan array binding signal (z-score within array); higher = stronger binding
Settings in all cases: glycan notation: IUPAC condensed, linker removed
[1] = biological target: Gal(b1-3)GlcNAc(b1-3)Gal(b1-4)GlcNAc(b1-2)[Gal(b1-3)GlcNAc(b1-3)Gal(b1-4)GlcNAc(b1-6)]Man(a1-6)[Gal(b1-3)GlcNAc(b1-3)Gal(b1-4)GlcNAc(b1-2)Man(a1-3)]Man(b1-4)GlcNAc(b1-4)[Fuc(a1-6)]GlcNAc
Procedure, shortened: (§1)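 From the Consortium for Functional Glycomics database, 3228 arrays were curated, keeping only those whose protein sequence was available. Binding is given as a within-array Z-score averaged across arrays sharing a protein sequence and across linkers. Negative Z-scores can be read as non-binding.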

[2] = biological target: Gal(b1-3)GlcNAc(b1-3)Gal(b1-4)GlcNAc(b1-3)Gal(b1-4)GlcNAc(b1-2)[Gal(b1-3)GlcNAc(b1-3)Gal(b1-4)GlcNAc(b1-3)Gal(b1-4)GlcNAc(b1-6)]Man(a1-6)[Gal(b1-3)GlcNAc(b1-3)Gal(b1-4)GlcNAc(b1-3)Gal(b1-4)GlcNAc(b1-2)Man(a1-3)]Man(b1-4)GlcNAc(b1-4)[Fuc(a1-6)]GlcNAc
Procedure, shortened: as §1

[3] = biological target: Gal(b1-3)GlcNAc(b1-3)Gal(b1-4)GlcNAc(b1-6)[Gal(b1-3)GlcNAc(b1-3)]Gal(b1-4)Glc
Procedure, shortened: as §1

[4] = biological target: Gal(b1-3)GlcNAc(b1-3)Gal(b1-4)[Fuc(a1-3)]GlcNAc
Procedure, shortened: as §1

[5] = biological target: Gal(b1-3)GlcNAc(b1-3)Gal(b1-4)[Fuc(a1-3)]GlcNAc(b1-6)[Gal(b1-3)GlcNAc(b1-3)]Gal(b1-4)Glc
Procedure, shortened: as §1

[6] = biological target: Gal(b1-3)GlcNAc(b1-3)GalNAc
Procedure, shortened: as §1

[7] = biological target: Gal(b1-3)GlcNAc(b1-6)Gal(b1-4)GlcNAc
Procedure, shortened: as §1

[8] = biological target: Gal(b1-3)GlcNAc(b1-6)GalNAc
Procedure, shortened: as §1

[9] = biological target: Gal(b1-3)GlcNAc(b1-6)[Gal(b1-3)]GalNAc
Procedure, shortened: as §1

Gal(b1-3)GlcNAc6S = biological target: Gal(b1-3)GlcNAc6S
Procedure, shortened: as §1

[10] = biological target: Gal(b1-3)[Fuc(a1-4)]GlcNAc
Procedure, shortened: as §1

[11] = biological target: Gal(b1-3)[Fuc(a1-4)]GlcNAc(b1-2)Man
Procedure, shortened: as §1

[12] = biological target: Gal(b1-3)[Fuc(a1-4)]GlcNAc(b1-2)Man(a1-3)[Gal(b1-3)[Fuc(a1-4)]GlcNAc(b1-2)Man(a1-6)]Man(b1-4)GlcNAc(b1-4)[Fuc(a1-6)]GlcNAc
Procedure, shortened: as §1

[13] = biological target: Gal(b1-3)[Fuc(a1-4)]GlcNAc(b1-3)Gal(b1-3)[Fuc(a1-4)]GlcNAc
Procedure, shortened: as §1

[14] = biological target: Gal(b1-3)[Fuc(a1-4)]GlcNAc(b1-3)Gal(b1-4)[Fuc(a1-3)]GlcNAc
Procedure, shortened: as §1

[15] = biological target: Gal(b1-3)[Fuc(a1-4)]GlcNAc(b1-6)GalNAc
Procedure, shortened: as §1

[16] = biological target: Gal(b1-3)[GlcNAc(b1-6)]GalNAc
Procedure, shortened: as §1

[17] = biological target: Gal(b1-3)[Neu5Ac(a2-6)]GalNAc
Procedure, shortened: as §1

[18] = biological target: Gal(b1-3)[Neu5Ac(a2-6)]GlcNAc(b1-4)Gal(b1-4)Glc
Procedure, shortened: as §1

[19] = biological target: Gal(b1-3)[Neu5Ac(b2-6)]GalNAc
Procedure, shortened: as §1

Gal(b1-4)Gal = biological target: Gal(b1-4)Gal
Procedure, shortened: as §1

[20] = biological target: Gal(b1-4)GalNAc(a1-3)[Fuc(a1-2)]Gal(b1-4)GlcNAc
Procedure, shortened: as §1

[21] = biological target: Gal(b1-4)GalNAc(b1-3)[Fuc(a1-2)]Gal(b1-4)GlcNAc
Procedure, shortened: as §1

Gal(b1-4)Glc = biological target: Gal(b1-4)Glc
Procedure, shortened: as §1

Gal(b1-4)Glc6S = biological target: Gal(b1-4)Glc6S
Procedure, shortened: as §1

Gal(b1-4)GlcNAc = biological target: Gal(b1-4)GlcNAc
Procedure, shortened: as §1

[22] = biological target: Gal(b1-4)GlcNAc(a1-6)Gal(b1-4)GlcNAc
Procedure, shortened: as §1

Gal(b1-4)GlcNAc(b1-2)Man = biological target: Gal(b1-4)GlcNAc(b1-2)Man
Procedure, shortened: as §1

[23] = biological target: Gal(b1-4)GlcNAc(b1-2)Man(a1-3)Man(b1-4)GlcNAc(b1-4)GlcNAc
Procedure, shortened: as §1

[24] = biological target: Gal(b1-4)GlcNAc(b1-2)Man(a1-3)[Gal(b1-4)GlcNAc(b1-2)Man(a1-6)]Man(b1-4)GlcNAc(b1-4)GlcNAc
Procedure, shortened: as §1

[25] = biological target: Gal(b1-4)GlcNAc(b1-2)Man(a1-3)[Gal(b1-4)GlcNAc(b1-2)Man(a1-6)]Man(b1-4)GlcNAc(b1-4)[Fuc(a1-6)]GlcNAc
Procedure, shortened: as §1

[26] = biological target: Gal(b1-4)GlcNAc(b1-2)Man(a1-3)[Gal(b1-4)GlcNAc(b1-2)Man(a1-6)][Gal(b1-4)GlcNAc(b1-4)]Man(b1-4)GlcNAc(b1-4)[Fuc(a1-6)]GlcNAc
Procedure, shortened: as §1

[27] = biological target: Gal(b1-4)GlcNAc(b1-2)Man(a1-3)[Gal(b1-4)GlcNAc(b1-2)Man(a1-6)][GlcNAc(b1-4)]Man(b1-4)GlcNAc(b1-4)[Fuc(a1-6)]GlcNAc
Procedure, shortened: as §1

[28] = biological target: Gal(b1-4)GlcNAc(b1-2)Man(a1-3)[GlcNAc(b1-2)Man(a1-6)]Man(b1-4)GlcNAc(b1-4)GlcNAc
Procedure, shortened: as §1

[29] = biological target: Gal(b1-4)GlcNAc(b1-2)Man(a1-3)[GlcNAc(b1-4)][Gal(b1-4)GlcNAc(b1-2)Man(a1-6)]Man(b1-4)GlcNAc(b1-4)GlcNAc
Procedure, shortened: as §1

[30] = biological target: Gal(b1-4)GlcNAc(b1-2)Man(a1-3)[Man(a1-6)]Man(b1-4)GlcNAc(b1-4)GlcNAc
Procedure, shortened: as §1

[31] = biological target: Gal(b1-4)GlcNAc(b1-2)Man(a1-6)Man(b1-4)GlcNAc(b1-4)GlcNAc
Procedure, shortened: as §1

[32] = biological target: Gal(b1-4)GlcNAc(b1-2)Man(a1-6)[GlcNAc(b1-2)Man(a1-3)]Man(b1-4)GlcNAc(b1-4)GlcNAc
Procedure, shortened: as §1

B1: OS9 (Arabidopsis thaliana) (protein)
chain: MRGSHHHHHHGMASMTGGQQMGRDLYDDDDKSRLQIFPAHLVGTFSRNNREPKYKIEFLPEDSPFHPGDNLESMVMLDKHGNRFLCYLPKEEKATSGWTSSQQNISTVMMETQQLVKLKTPDELLQPLSEKCLFRQEGWWSYEFCHQKYVRQLHVEDENKIVQEFFLGTFDPEATAAFNQTVSDASTDASQRYHSHVYTNGTTCDLTGSPREVEVRFVCAETRAMVTSITELSTCKYALTVQCPTLCKHPLFQLEKPVSHTIHCNAIPVEEDATRNKEEQAVDESPKMIADS
For B1, the “glycan array binding signal (z-score)” value [1] was -0.135, the “glycan array binding signal (z-score)” value [2] was 2.88 and the “glycan array binding signal (z-score)” value [3] was -0.814. For the same binder, the “glycan array binding signal (z-score)” value [4] was -0.414, the “glycan array binding signal (z-score)” value [5] was -0.444 and the “glycan array binding signal (z-score)” value [6] was 1.33. For the same binder, the “glycan array binding signal (z-score)” value [7] was 1.29, the “glycan array binding signal (z-score)” value [8] was 1.44 and the “glycan array binding signal (z-score)” value [9] was 0.651. For the same binder, the “glycan array binding signal (z-score)” value (Gal(b1-3)GlcNAc6S) was 0.414, the “glycan array binding signal (z-score)” value [10] was 0.073 and the “glycan array binding signal (z-score)” value [11] was 0.58. The “glycan array binding signal (z-score)” value [12] was 7.5, the “glycan array binding signal (z-score)” value [13] was -0.51 and the “glycan array binding signal (z-score)” value [14] was -0.856. The “glycan array binding signal (z-score)” value [15] was -0.151, the “glycan array binding signal (z-score)” value [16] was 1.98 and the “glycan array binding signal (z-score)” value [17] was -0.994. The “glycan array binding signal (z-score)” value [18] was -0.96, the “glycan array binding signal (z-score)” value [19] was 0.56 and the “glycan array binding signal (z-score)” value (Gal(b1-4)Gal) was -0.936. The “glycan array binding signal (z-score)” value [20] was -0.832, the “glycan array binding signal (z-score)” value [21] was -0.168 and the “glycan array binding signal (z-score)” value (Gal(b1-4)Glc) was -0.65. The “glycan array binding signal (z-score)” value (Gal(b1-4)Glc6S) was 0.066, the “glycan array binding signal (z-score)” value (Gal(b1-4)GlcNAc) was -1.02 and the “glycan array binding signal (z-score)” value [22] was 0.297. For the same binder, the “glycan array binding signal (z-score)” value (Gal(b1-4)GlcNAc(b1-2)Man) was -0.591, the “glycan array binding signal (z-score)” value [23] was -0.282 and the “glycan array binding signal (z-score)” value [24] was -0.393. For the same binder, the “glycan array binding signal (z-score)” value [25] was 1.63, the “glycan array binding signal (z-score)” value [26] was -0.28 and the “glycan array binding signal (z-score)” value [27] was 0.877. The “glycan array binding signal (z-score)” value [28] was -1.35, the “glycan array binding signal (z-score)” value [29] was -0.453 and the “glycan array binding signal (z-score)” value [30] was -0.928. The “glycan array binding signal (z-score)” value [31] was -0.928 and the “glycan array binding signal (z-score)” value [32] was 0.081.
